This test deals with wild type (WT) human TRPA1 (Transient Receptor Potential Ankyrin subtype 1) (human) (UniProt O75762). The test is described as follows: proximity labelling; BioID2-fused protein co-expressed with 3×FLAG-tagged protein in cells; biotinylated proteins precipitated with Neutravidin resin and probed with anti-FLAG antibody.

Chains of the proteins cited; added tags and fusions are not shown. Lines headed by an entry give the natural chain unless they say otherwise; changes in a name come on top.
UniProt O75762: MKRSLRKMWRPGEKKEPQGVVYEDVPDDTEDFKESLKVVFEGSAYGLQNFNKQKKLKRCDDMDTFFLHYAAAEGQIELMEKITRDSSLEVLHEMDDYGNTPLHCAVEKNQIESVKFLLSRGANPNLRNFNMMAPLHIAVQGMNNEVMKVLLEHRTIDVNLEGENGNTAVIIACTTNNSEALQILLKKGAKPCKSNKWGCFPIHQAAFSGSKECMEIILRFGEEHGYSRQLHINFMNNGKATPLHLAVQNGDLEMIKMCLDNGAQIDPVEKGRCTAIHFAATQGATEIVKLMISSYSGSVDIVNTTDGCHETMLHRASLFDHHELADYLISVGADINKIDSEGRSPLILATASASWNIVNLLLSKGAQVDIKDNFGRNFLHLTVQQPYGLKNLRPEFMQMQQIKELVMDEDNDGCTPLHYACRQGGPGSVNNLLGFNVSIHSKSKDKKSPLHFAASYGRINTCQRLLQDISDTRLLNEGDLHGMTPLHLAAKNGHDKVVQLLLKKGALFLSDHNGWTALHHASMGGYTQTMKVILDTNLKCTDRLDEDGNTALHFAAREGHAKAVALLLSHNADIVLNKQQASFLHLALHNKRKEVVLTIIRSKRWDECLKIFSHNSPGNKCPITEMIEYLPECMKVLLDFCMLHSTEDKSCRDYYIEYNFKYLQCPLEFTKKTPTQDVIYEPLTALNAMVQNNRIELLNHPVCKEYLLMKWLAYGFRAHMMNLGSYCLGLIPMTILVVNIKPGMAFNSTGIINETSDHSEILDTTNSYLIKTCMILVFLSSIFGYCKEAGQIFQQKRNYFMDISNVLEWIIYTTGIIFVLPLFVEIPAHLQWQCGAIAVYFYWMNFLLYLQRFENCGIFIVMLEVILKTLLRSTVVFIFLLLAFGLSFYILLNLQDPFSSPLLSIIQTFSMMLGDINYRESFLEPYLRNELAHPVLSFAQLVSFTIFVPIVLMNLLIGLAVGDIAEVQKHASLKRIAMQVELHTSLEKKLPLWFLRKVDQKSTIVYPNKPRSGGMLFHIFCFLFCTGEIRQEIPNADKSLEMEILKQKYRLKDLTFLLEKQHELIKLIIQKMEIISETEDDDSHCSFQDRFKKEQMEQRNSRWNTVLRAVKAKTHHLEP

These are yes or no findings as the source states them, for the method shown. In cells and extracts the contact can be indirect. These calls come from enrichment with a bait or labelling near it, and not all partners need be listed.

As for “R919* human TRPA1 mutant (CRAMPT syndrome truncation) (from UniProt O75762 1-918) (domain or fragment)”, the binding entry is “binds”. For “wild type (WT) human TRPA1 (Transient Receptor Potential Ankyrin subtype 1) (from UniProt O75762 1-1119)” the value was “binds”.

The values are drawn from publication PMC10199097, “Molecular mechanism of hyperactivation conferred by a truncation of TRPA1” (Nature Communications, 2023).
